Assay results reported in article PMC4772494.
No constants are given. Whether binding was seen depends on the method and setting. In cells and extracts the contact can be indirect. Some binding calls cover weakened binding; strength is not graded here.

Experiments:
[1] = biological target: T1, Nod-like receptor protein 1 (NLRP1) (rat (endogenous in spinal cord tissue and primary spinal cord neurons)) (UniProt D9I2F9); test: co-IP; rat spinal cord lysates (sham, or 24 h after SCI) in 50 mM Tris-HCl pH 7.4, 150 mM NaCl, 0.5 % NP-40; anti-ASC or anti-NLRP1 antibody coupled to magnetic Dynabeads, overnight at 4 °C, low-pH elution, immunoblot; pre-immune serum as negative control
T1 sequence: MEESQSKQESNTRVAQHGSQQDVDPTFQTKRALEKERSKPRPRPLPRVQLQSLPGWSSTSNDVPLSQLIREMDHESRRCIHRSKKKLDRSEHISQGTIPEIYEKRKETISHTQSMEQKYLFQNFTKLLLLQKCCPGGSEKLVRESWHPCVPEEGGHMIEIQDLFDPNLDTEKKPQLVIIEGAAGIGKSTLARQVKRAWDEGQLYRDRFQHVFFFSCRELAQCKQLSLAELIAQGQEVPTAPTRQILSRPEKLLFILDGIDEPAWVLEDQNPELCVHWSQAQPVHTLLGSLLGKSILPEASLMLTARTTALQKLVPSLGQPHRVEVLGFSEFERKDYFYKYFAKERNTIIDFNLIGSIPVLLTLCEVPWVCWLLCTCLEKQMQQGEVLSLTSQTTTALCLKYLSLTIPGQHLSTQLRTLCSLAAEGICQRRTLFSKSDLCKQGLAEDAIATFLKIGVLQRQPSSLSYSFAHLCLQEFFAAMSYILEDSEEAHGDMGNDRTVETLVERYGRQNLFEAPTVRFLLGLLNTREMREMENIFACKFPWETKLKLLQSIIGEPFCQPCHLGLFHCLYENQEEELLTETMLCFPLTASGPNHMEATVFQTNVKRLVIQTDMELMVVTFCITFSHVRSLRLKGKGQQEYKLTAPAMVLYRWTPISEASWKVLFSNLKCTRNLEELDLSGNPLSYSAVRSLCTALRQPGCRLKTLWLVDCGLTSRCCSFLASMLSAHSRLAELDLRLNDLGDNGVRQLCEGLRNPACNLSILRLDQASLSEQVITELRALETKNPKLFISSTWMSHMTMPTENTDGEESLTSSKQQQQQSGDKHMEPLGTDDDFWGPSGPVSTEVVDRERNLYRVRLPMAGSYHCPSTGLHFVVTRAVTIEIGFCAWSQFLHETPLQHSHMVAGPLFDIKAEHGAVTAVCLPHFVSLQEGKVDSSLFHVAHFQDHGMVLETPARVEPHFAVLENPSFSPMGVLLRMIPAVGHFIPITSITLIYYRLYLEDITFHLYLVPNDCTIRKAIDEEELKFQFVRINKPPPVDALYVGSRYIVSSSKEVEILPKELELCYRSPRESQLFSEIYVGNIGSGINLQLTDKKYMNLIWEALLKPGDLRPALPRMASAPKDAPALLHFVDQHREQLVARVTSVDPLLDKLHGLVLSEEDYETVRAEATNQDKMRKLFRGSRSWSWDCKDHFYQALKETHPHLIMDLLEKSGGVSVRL

[2] = biological target: T1, Nod-like receptor protein 1 (NLRP1) (rat (endogenous in spinal cord tissue and primary spinal cord neurons)); test: co-IP; primary rat spinal cord neuron lysates (untreated, or 6 h 10 μM H2O2) in 50 mM Tris-HCl pH 7.4, 150 mM NaCl, 0.5 % NP-40; anti-NLRP1 antibody coupled to magnetic Dynabeads, overnight at 4 °C, low-pH elution, immunoblot

B1: pro-caspase-1 (enzyme, UniProt P43527 1-402)
chain: MADKVLRAKRKQFINSVSVGTINGLLDELLEKRVLNQEEMDTIKLANITVMEKARDLCDHVTKKGPRASQMFITYICNEDCYLAEILELQSGPSAETVFVTEDSKGGHPFSSETKEKLNKEGGAFPGPSGSLKFCPLEIAQKLWKENHSEIYPIMKTPTRTRLALIICNTDFQHLSRRVGADVDLREMKLLLQDLGYTVKVKENLTALEMTKELKEFAACPEHKTSDSTFLVFMSHGLQEGICGITYSNEVADILKVDTIFQMMNTLKCPSLKDKPKVIIIQACRGEKQGVVLLKDSVGNSEEGFLTDAIFEDDGIKKAHIEKDFIAFCSSTPDNVSWRHPVRGSLFIESLIKHMKEYAWSCDLEDIFRKVRFSFEQPDSRLQMPTTERVTLTKRFYLFPGH
binding [1]: binds
binding [2]: binds

B2: caspase-1 p20 (domain or fragment, UniProt P43527 119-296)
chain: NKEGGAFPGPSGSLKFCPLEIAQKLWKENHSEIYPIMKTPTRTRLALIICNTDFQHLSRRVGADVDLREMKLLLQDLGYTVKVKENLTALEMTKELKEFAACPEHKTSDSTFLVFMSHGLQEGICGITYSNEVADILKVDTIFQMMNTLKCPSLKDKPKVIIIQACRGEKQGVVLLKD
binding [2]: binds
